AC50 data for 20 compounds are collected here from PubChem BioAssay AID493014 (National Center for Advancing Translational Sciences (NCATS), 2011).

Each structure is given as a SMILES string. Some of the results follow. The main result of the screen is listed elsewhere. These columns were measured beside it and carry no call. Most of these compounds were active or inconclusive in the main read-out, so they are no random draw. Potencies come from curve fits of mixed quality, noted in brackets.

The nature of the assay: qHTS Assay to Find Inhibitors of Chronic Active B-Cell Receptor Signaling. The settings on record: ABC-DLBCL IkBa-CBG/CBR reporter, luminescence ratio (green luciferase fused to IkBa over red control in TMD8 lymphoma cells), 4 h. The procedure, abridged:
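TMD8 ABC-DLBCL cells carrying doxycycline-inducible green luciferase fused to IkappaBalpha plus unfused red luciferase were exposed to compounds (up to 46 uM) for 4 hrs at 37C. Activity came from the overlap-corrected green/red luminescence ratio.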
(In general: Quantitative high-throughput screening tests each substance at several concentrations.)

Setting [1] is: measured here: CBR red luminescence, cell number.

For the compound `Cc1ccnc(NC(=O)c2ccc(OCc3c(C)noc3C)cc2)c1`, the AC50 by setting is: under setting [1], 4.11 µM [rising, partial curve, poor fit]; (measured here: IkBa-CBG green luminescence) 5.17 µM [falling, partial curve, poor fit]. On to `CC(=O)c1ccccc1NC(=O)c1ccc(N2CCCC2=O)cc1`, for which the AC50 under setting [1] is 2.31 µM [falling, full curve].

Consider `Cc1ccc(C(=O)NC(=C(Cl)Cl)S(=O)(=O)c2ccc(Cl)cc2)cc1`, for which the AC50 under setting [1] was 31.6 µM [falling, single point]. As to `Cc1ccc(N2CCN(CC(O)COc3ccccc3)CC2)cc1` (stereo unspecified), the AC50 under setting [1] is 3.16 µM [rising, full curve, poor fit]. The same measure, in the same setting: with `O=C(N/N=C/c1cccnc1)c1ccccc1OCc1ccc(Cl)cc1` the figure was 2.24 µM [falling, full curve]; with `CCNC(=O)COc1ccc(Br)cc1Cl`, 32.6 µM [rising, single point]; with `COc1cccc(C(=O)N/N=c2/oc3ccccc3cc2C(N)=O)c1`, 10 µM [falling, single point]. Same read-out and setting: then `CC(C)Cn1c(CN2CCN(C(=O)c3ccco3)CC2)nc2c1c(=O)n(C)c(=O)n2C`, with 12.6 µM [rising, single point].

As for `O=C(NCc1cccs1)C(=O)c1c[nH]c2ccccc12`, the AC50 under setting [1] was 1.26 µM [falling, full curve]. Turning to `O=C(NCCN1C(=O)S/C(=C\c2ccccc2)C1=O)C1CCN(S(=O)(=O)c2cccs2)CC1`, under setting [1], the AC50 was 4.11 µM [rising, full curve, poor fit]. For `Cc1ccc(C)c(C(=O)C(C)Sc2nc3nn(-c4ccccc4)c(=O)c-3c3n2CCCCC3)c1` (stereo unspecified), the AC50 under setting [1] is 28.2 µM [falling, partial curve, poor fit]. The same measure, in the same setting: with `COc1ccc(C(C(=O)NCC2CCCO2)N(C(=O)CNC(=O)c2ccco2)c2ccccc2)cc1OC` (stereo unspecified) the figure was 20 µM [rising, partial curve, poor fit].

`COc1ccc(C)cc1NC(=O)N1CCCc2ccccc21`: the half-maximal activity concentration (AC50) under setting [1] is 3.55 µM [rising, partial curve, poor fit]. For the compound `COc1cccc2c1Oc1cc([N+](=O)[O-])cc(N(C)C(C)=O)c1C=C2`, under setting [1], the half-maximal activity concentration (AC50) was 14.1 µM [rising, single point]. The same measure, in the same setting: then `Nc1nnn(CC(=O)N/N=C/C=C/c2ccccc2)n1`, with 11.2 µM [rising, partial curve, poor fit]; and `Cc1nc(N2CCC(C)CC2)c(C#N)c(C)c1[N+](=O)[O-]`, with 25.1 µM [rising, single point]. Take `CN(Cc1nc2ccccc2c(=O)[nH]1)C(=O)c1ccc(NC(=O)CSc2nnnn2C)cc1`: the AC50 under setting [1] was 4.11 µM [rising, full curve]. On to `COc1ccccc1N1CCN(C(=O)CSc2nc3ccccc3o2)CC1`, for which the AC50 under setting [1] was 0.651 µM [falling, full curve, poor fit]. Still for that read-out and setting: then `Cc1ccc(NC(=S)NCC23C=CC(O2)C2C(=O)N(c4ccc(C)cc4)C(=O)C23)cc1` (stereo unspecified), with 29.1 µM [falling, single point]; and `CCCCC(=O)NC(=S)Nc1cccc(C(=O)O)c1`, with 35.5 µM [falling, single point].

As a reminder, the AC50 is the concentration at which the activity in the assay is half-maximal.
